The nature of this assay: qHTS Assay for Lipid Storage Modulators in Drosophila S3 Cells.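 For cell number change: cells counted by Cell Tracker Red CMTPX staining in the red channel.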 Conditions: BODIPY lipid droplet fluorescence, 18-24 h; for cell number change: measured here: cell count max response, cells fed with added oleic acid. In outline:
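Drosophila S3 cells got compounds at several concentrations plus oleic acid (400 uM solution). Laser-scanning cytometry with 488 nm excitation read lipid droplets at 500-530 nm and cells at 575-640 nm. Percent activity was relative to 20 uM Triacsin C.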
Background: qHTS replaces the single test concentration by a dilution series.

[1] abbreviates: measured here: lipid fluorescence (Fed channel) AC50, cells fed with added oleic acid.
Setting [2] is: measured here: cell number channel AC50, cells fed with added oleic acid.

Structures are written as SMILES. The list shows a part of the results. The main result of the screen is listed elsewhere. These columns were measured beside it and carry no call. Compounds called inactive in the main read-out are mostly missing here. The note in brackets gives the kind of curve behind each potency; many fits are weak.

For orientation: AC50 means the concentration at which the activity in the assay is half-maximal. A high value points to activity only at high concentration.

Take `O=C(COc1ccc2ccccc2c1)Nc1ccncc1`: the cell number change was -17.1%. Moreover, under setting [1], the AC50 was 32.6 µM [falling, single point].

As for `COc1cccc(/C=N/n2c(C)nc3ccccc32)c1OC`, under setting [2], the AC50 was 0.731 µM [rising, single point].

For the compound `Cc1c(C(=O)N2CCC(N3CCSCC3)CC2)oc2c(F)cccc12`, the cell number change was 43.6%. Moreover, under setting [2], the AC50 was 10.3 µM [rising, partial curve, poor fit].

As for `CCOC(=O)c1sc(-c2ccccc2)cc1NC(=O)Nc1ccccc1`, the cell number change is -13.8%. Moreover, under setting [1], the AC50 was 18.4 µM [falling, single point].

For the compound `O=S(=O)(/N=C(/Sc1ccccc1)c1ccccc1)c1ccccc1`, under setting [1], the AC50 was 6.51 µM [falling, single point].

For `CC1Oc2ccccc2C=C1/C=C1/SC(N2CCOCC2)=NC1=O` (stereo unspecified), the cell number change turned out to be 12.5%.

Turning to `COCCN1CCN(C(=O)c2cc(COc3ccc(F)c(F)c3)on2)CC1`, the cell number change is -0.867%.

In the case of `O=C(COC(=O)c1cccc(F)c1)NC1CC1`, the AC50 under setting [2] was 0.184 µM [falling, full curve, poor fit].

Regarding `O=C(CN1CCN(CCC(=O)Nc2ccccc2F)CC1)Nc1ccc(F)cc1`, the cell number change turned out to be 12.3%.

As for `Cc1cc(C)nc(Nc2ncc(O)n2-c2ccc(C)c(C)c2)n1`, the cell number change stood at 1.44%. Also, the AC50 under setting [2] was 0.291 µM [rising, single point].

Turning to `Cn1cccc1C(=O)NCC(c1ccc(F)cc1)N1CCOCC1` (stereo unspecified), the cell number change amounted to 7.65%.

For the compound `O=C(CN1CSCC1=O)N1CCN(S(=O)(=O)c2ccc(Cl)cc2)CC1`, the cell number change was -9.02%.

Take `CC(=O)c1ccc(NC(=O)Nc2ccc(Br)cc2C)cc1`: the cell number change was -41.4%. Besides, under setting [2], the AC50 is 32.6 µM [falling, single point]. For the same compound, the AC50 under setting [1] was 29.1 µM [falling, single point].

For `COC1CCCCC1Nc1cc(C)ccc1C` (stereo unspecified), under setting [1], the AC50 was 0.82 µM [falling, full curve, poor fit].

As for `CCCN(CC(=O)Nc1ccccc1C)C(=O)c1cccc(S(=O)(=O)N2CCc3ccccc3C2)c1`, the cell number change was -4.04%. Also, the AC50 under setting [1] is 18.4 µM [rising, single point].

Take `c1ccc(-c2cnc(CSc3ncnc4sccc34)o2)cc1`: the cell number change is -30.3%. For the same compound, under setting [2], the AC50 was 8.2 µM [falling, partial curve].

Regarding `CNC(=O)NCCN1CCCC1=O`, the cell number change turned out to be 1.83%. In addition, the AC50 under setting [1] is 18.4 µM [falling, single point].

For `Cc1nc(-c2ccc(F)cc2)c(CC(=O)NCC(=O)Nc2ccc(F)c(F)c2)s1`, the cell number change came out at 9.37%. The AC50 under setting [1] is 16.4 µM [rising, partial curve].

In the case of `C=COCCn1c(-c2nonc2N)nc2ccccc21`, the cell number change was found to be 10.1%. Besides, the AC50 under setting [1] was 13 µM [rising, single point].

As for `CC(C)(C)c1ccc(OCC(=O)NNC(=O)Nc2ccccc2)cc1`, the cell number change stood at 3.57%.

In the case of `O=C(NCCc1ccccc1)C1c2ccccc2C(=O)N1Cc1cccs1` (stereo unspecified), the cell number change was -15.8%.

Regarding `O=[N+]([O-])c1ccc2oc(C(O)c3cccc(Cl)c3)cc2c1` (stereo unspecified), the cell number change is -38.3%. For the same compound, the AC50 under setting [2] was 29.1 µM [falling, single point]. Further, the AC50 under setting [1] is 29.1 µM [falling, single point].

On to `O=C(CCc1c[nH]c2ccccc12)N=Nc1c(O)[nH]c2ccccc12`, for which the AC50 under setting [1] was 6.51 µM [rising, full curve, poor fit].

Turning to `O=C(c1noc2c1CCCC2)N1CCCCC1`, the cell number change amounted to 6.29%. Besides, the half-maximal activity concentration (AC50) under setting [1] was 20.6 µM [falling, single point].

On to `CSCCC(N=CC1=C(O)CC(C)(C)CC1=O)C(=O)O` (stereo unspecified), for which the cell number change is -25.4%. In addition, the AC50 under setting [2] is 0.146 µM [falling, full curve, poor fit]. Moreover, under setting [1], the concentration at half-maximal activity (AC50) is 29.1 µM [falling, single point].

Consider `O=C(OCCN1C(=O)c2ccccc2C1=O)c1cc(=O)[nH]c2ccccc12`, for which the cell number change is -16.6%.

For `O=C(NN1CCOCC1)c1cnn2c(C(F)F)cc(-c3ccccc3)nc12`, the cell number change is 17.4%. In addition, the AC50 under setting [1] was 0.206 µM [rising, single point].

Regarding `CCC1(C)Cc2nc3[nH]c(=S)n(-c4ccccc4C)c(=O)c3cc2CO1` (stereo unspecified), the cell number change is -17.1%. Besides, the AC50 under setting [1] was 1.16 µM [falling, partial curve, poor fit].

As for `O=C(NC1(c2ccccc2)CC1)C1CCC(=O)N(Cc2ccc(Cl)cc2)C1` (stereo unspecified), the cell number change is 5.66%.

As for `CCN(CC)c1ccc(C(=O)NNC(=O)CCl)cc1`, the cell number change is -18.2%. In addition, the AC50 under setting [1] is 13 µM [falling, partial curve, poor fit].

Regarding `CCC(CC)N1CCN(CC2CC=CCC2)CC1` (stereo unspecified), the cell number change is -41.7%.

Take `CCN1CCN(C(=O)/C=C/c2ccc(OC)cc2)CC1`: the cell number change was -8.01%. Moreover, under setting [1], the AC50 was 29.1 µM [rising, single point].

For `COc1ccc(NC(=O)c2ccccc2NC(=O)CSc2ccc(C)cc2)cc1`, the cell number change was -45.9%. For the same compound, the AC50 under setting [2] was 29.1 µM [falling, single point]. Moreover, under setting [1], the AC50 is 7.31 µM [falling, partial curve, poor fit].

With `COC1=CC(=Cc2c(N)n3nc(CC(=O)N4CCOCC4)sc3nc2=O)C=C(OC)C1=O`, the cell number change is -89.9%. In addition, the AC50 under setting [2] was 29.1 µM [falling, partial curve]. Under setting [1], the AC50 is 0.58 µM [falling, full curve].

In the case of `CC(C)c1ccc(/C=C(\NC(=O)c2ccccc2)C(=O)NCCCN2CCOCC2)cc1`, the cell number change was determined as 6.9%.

Turning to `COc1ccc(-c2sc3cc4c(cc3c2C#CC2(O)CCCCC2)OCO4)cc1`, the cell number change was -34.8%. For the same compound, the AC50 under setting [2] is 5.8 µM [falling, single point].

For `Cc1cccc(OCc2nc(-c3ccccn3)n[nH]2)c1`, the cell number change was 32.7%. Further, the AC50 under setting [2] was 29.1 µM [rising, single point]. For the same compound, the AC50 under setting [1] is 29.1 µM [rising, single point].

As for `CCOc1ccc(S(=O)(=O)NCC(=O)NC2CCCCC2)cc1`, the cell number change was -14.5%. Under setting [1], the AC50 was 4.61 µM [rising, full curve].

With `COc1ccc(NC(=O)C2CCCN(S(=O)(=O)c3cccc4cccnc34)C2)cc1OC` (stereo unspecified), under setting [1], the AC50 is 0.461 µM [rising, single point].

As to `Oc1ccc2ccccc2c1C1Nc2cccc3cccc(c23)N1`, the cell number change was found to be 6.79%. In addition, the AC50 under setting [2] is 0.13 µM [falling, full curve, poor fit]. The half-maximal activity concentration (AC50) under setting [1] is 0.461 µM [falling, full curve, poor fit].

Regarding `Cc1cccc(OCc2nnc(SCC(=O)N(C(C)C)C(C)C)n2Cc2ccco2)c1C`, the cell number change was -20.7%. In addition, the AC50 under setting [1] is 0.103 µM [falling, partial curve].

Consider `CSc1ccccc1OCc1cc(C(=O)N(C)Cc2ccncn2)no1`, for which the cell number change amounted to 4.92%. For the same compound, under setting [1], the half-maximal activity concentration (AC50) was 6.51 µM [rising, single point].

Turning to `O=C(CN1CCOCC1)Nc1cccc(C(=O)Nc2cccc(C(F)(F)F)c2)c1`, under setting [2], the concentration at half-maximal activity (AC50) is 2.06 µM [rising, partial curve].

As for `CC1CCN(S(=O)(=O)c2cccc(S(=O)(=O)N3CCCC3)c2)CC1`, the cell number change worked out at 12.8%.

For `COc1ccc(C2CC(=O)c3cnc(NC(=O)c4cccc(OC)c4)nc3C2)cc1` (stereo unspecified), the AC50 under setting [1] is 7.31 µM [rising, partial curve].

Consider `COc1ccccc1CCC(=O)NC1CCCN(c2ccc(C(F)(F)F)cn2)C1` (stereo unspecified), for which the cell number change is 93.4%. In addition, under setting [2], the concentration at half-maximal activity (AC50) is 29.1 µM [rising, single point].

As for `CCOC(=O)C1(CCOc2ccccc2)CCN(Cc2cccc(OCCO)c2)CC1`, the cell number change came out at 22.3%. For the same compound, the AC50 under setting [1] is 29.1 µM [rising, single point].

As to `CCN(CC)S(=O)(=O)c1cccc(NC(=O)CN(C)Cc2cccc(OC)c2)c1`, the cell number change is -19.5%.

As for `CC1CC(C)CN(C(=O)COC(=O)c2ccc(Cl)nc2)C1` (stereo unspecified), the cell number change is -28.8%. Further, the concentration at half-maximal activity (AC50) under setting [1] was 0.13 µM [falling, full curve].

As for `NC[C@H](Cc1ccccc1)NCCCCC1CCCCC1`, the cell number change was -41.1%. For the same compound, under setting [2], the AC50 is 25.9 µM [falling, single point]. Further, the AC50 under setting [1] was 0.0058 µM [rising, full curve, poor fit].

Take `O=C(O)CCNc1nc(C(F)(F)F)nc2ccccc12`: the cell number change is -42.3%.

`N#Cc1ccc(OC(=O)C2CCN(C3=NS(=O)(=O)c4ccccc43)CC2)cc1`: the cell number change is 3.31%. Moreover, under setting [2], the AC50 is 6.51 µM [falling, single point]. Also, the half-maximal activity concentration (AC50) under setting [1] is 6.51 µM [falling, single point].

For `COc1ccc(NC(=O)CSc2nc(=O)n(CCN3CCOCC3)c3c2CCC3)cc1`, the cell number change was determined as 32.6%. Besides, the AC50 under setting [1] is 9.2 µM [rising, partial curve, poor fit].

Consider `CCOC(=O)C(c1ccccc1)N1CCN(c2ccc(OC)cc2)CC1` (stereo unspecified), for which the cell number change came out at 41.7%. The AC50 under setting [2] was 0.651 µM [rising, full curve].

For the compound `CCN1CCN(C2=C(NS(=O)(=O)c3ccc(C)cc3)C(=O)c3ccccc3C2=O)CC1`, the cell number change is -17.2%. For the same compound, under setting [1], the AC50 is 4.61 µM [falling, single point].

As to `CCOC(=O)c1c(C)[nH]c(C(=O)COC(=O)c2cnccn2)c1C`, the cell number change is -12.1%. Further, the AC50 under setting [1] is 29.1 µM [rising, single point].

For `C=CC(C)(C)c1cc2cc3ccoc3cc2oc1=O`, the cell number change is -34.1%. For the same compound, the AC50 under setting [2] is 20.6 µM [falling, single point]. Further, under setting [1], the AC50 was 16.4 µM [falling, single point].

On to `CSc1ccccc1NC(=O)c1ccc(C)o1`, for which the cell number change came to 35.1%. The AC50 under setting [2] is 18.4 µM [rising, single point]. Besides, the AC50 under setting [1] is 0.092 µM [rising, full curve, poor fit].

Regarding `COc1cc(S(=O)(=O)NCC2COCCO2)ccc1-n1cnnn1` (stereo unspecified), the cell number change was -11.6%. The AC50 under setting [1] is 5.8 µM [rising, full curve, poor fit].

For the compound `O=C(NOC(=O)c1ccccc1F)c1ccc(OC(F)F)cc1`, the AC50 under setting [1] is 0.116 µM [rising, partial curve, poor fit].

As for `CCN1C(C(=O)c2ccccc2)=C(Nc2ccccc2C)c2ccccc2S1(=O)=O`, the cell number change was -13.7%. For the same compound, under setting [1], the AC50 was 0.731 µM [falling, partial curve, poor fit].

Turning to `C=CCN1CN(S(=O)(=O)c2cccs2)c2nc3ccccc3nc21`, the cell number change worked out at 15.7%. Besides, under setting [1], the AC50 is 1.3 µM [rising, partial curve].

For `NC(=O)C1CC(=O)N(c2ccc(OCC(=O)Nc3cccc(C(F)(F)F)c3)cc2)C1` (stereo unspecified), the cell number change amounted to 21.4%. In addition, the AC50 under setting [1] is 0.651 µM [falling, single point].

Regarding `COc1cc(/C=N/NC(=O)Cc2nnc(N)s2)cc(OC)c1OC`, the cell number change was -16.7%. In addition, under setting [1], the AC50 is 29.1 µM [falling, single point].

For the origin of these results see PubChem BioAssay AID2685 (National Center for Advancing Translational Sciences (NCATS), 2010).
